Data: PubChem BioAssay AID493014 (National Center for Advancing Translational Sciences (NCATS), 2011)
Some of the results follow. Further columns of the screen follow, without active or inactive calls. Compounds called inactive in the main read-out are mostly missing here. Words in brackets tell the shape of the fitted curve; partial curves, single points and poor fits give uncertain potencies.

Test: qHTS Assay to Find Inhibitors of Chronic Active B-Cell Receptor Signaling
Conditions: ABC-DLBCL IkBa-CBG/CBR reporter, luminescence ratio (green luciferase fused to IkBa over red control in TMD8 lymphoma cells), 4 h
Outline: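 Compounds up to 46 uM were incubated four hours with TMD8 cells whose green CBG68 luciferase is fused to IkappaBalpha; red CBR luminescence normalised the signal, and concentration-effect curves were fitted to fusion, red and ratio data.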

[1] = measured here: CBR red luminescence, cell number

| Compound | AC50 [1] | AC50 (measured here: IkBa-CBG green luminescence) |
| --- | --- | --- |
| Cc1cc(C)c(C(=O)OCc2csc(CC(=O)Nc3ccccc3C)n2)c(C)c1 | 1 µM [rising, full curve, poor fit] | – |
| CCCCNC(=O)N(O)C1N(/N=C/c2ccccc2F)C(=S)SC1(C)C (stereo unspecified) | 35.5 µM [falling, single point] | – |
| O=C(NCCCn1ccnc1)Nc1ccc(Cl)c(Cl)c1 | 3.16 µM [rising, partial curve, poor fit] | – |
| CCN(c1ccccc1)S(=O)(=O)c1ccc(C(=O)Nc2ncccc2C)cc1 | 25.9 µM [falling, partial curve, poor fit] | – |
| COc1cc(OC)cc(C(=O)/C=C2\Sc3ccccc3N2C)c1 | 0.355 µM [falling, full curve, poor fit] | – |
| O=C(Nc1c(Cl)ccc2nsnc12)c1ccc([N+](=O)[O-])o1 | 3.98 µM [falling, partial curve, poor fit] | – |
| CC(=O)c1ccc(S(=O)(=O)N(C)CCCC(=O)N(C)Cc2ccccc2F)cc1 | 6.31 µM [rising, single point] | – |
| Cc1cccc(-c2noc(CCCC(=O)Nc3cccnc3)n2)c1 | 3.16 µM [rising, full curve, poor fit] | – |
| COC(=O)c1ccc(Oc2c(Cl)cccc2[N+](=O)[O-])cc1 | 5.8 µM [rising, full curve, poor fit] | – |
| Cc1ccc(/C=C/C(=O)Nc2cc(S(N)(=O)=O)ccc2O)cc1 | 10 µM [falling, partial curve] | – |
| Cc1ccc(C(=O)NCC(=O)NCC(=O)OCc2ccc(F)cc2)cc1 | 12.6 µM [rising, single point] | – |
| Cc1ccc(S(=O)(=O)Nc2c(O)c3ccccc3oc2=O)cc1 | 20 µM [falling, partial curve, poor fit] | – |
| COc1ccc(NC(C)c2cc(Cl)ccc2O)cc1 (stereo unspecified) | 7.31 µM [falling, partial curve] | – |
| O=C(Nc1ccc2nc(-c3cccnc3)[nH]c2c1)C1CCCCC1 | 8.2 µM [falling, partial curve] | 3.26 µM [rising, full curve, poor fit] |
| COc1ccc(C2CC(c3ccccc3)=NN2C(=O)COC(=O)COc2ccccc2)cc1 (stereo unspecified) | 35.5 µM [rising, partial curve, poor fit] | – |
| CCOC(=O)c1cnc(SCC(=O)N2CCOCC2)nc1N | 35.5 µM [falling, partial curve, poor fit] | – |
| CNC(=O)C1C(=S)NC(N)=C(C#N)C1c1ccccc1 (stereo unspecified) | 1.84 µM [falling, partial curve, poor fit] | – |
| Cc1ccccc1NC(=O)CNc1ccc(Cl)c(C(F)(F)F)c1 | 29.1 µM [falling, partial curve, poor fit] | – |
| N=c1n(CCN2CCCCC2)c2ccccc2n1CC(=O)c1ccc(Cl)c(Cl)c1 | 7.94 µM [falling, partial curve] | – |
| CC(=O)c1coc2ccc(OCC(=O)O)cc12 | 23.1 µM [rising, partial curve, poor fit] | – |

A second format for some results above:
Compound | AC50 [1] | AC50 (measured here: IkBa-CBG green luminescence)
O=C(NCCCn1ccnc1)Nc1ccc(Cl)c(Cl)c1 | 3.16 µM [rising, partial curve, poor fit] | –
CCN(c1ccccc1)S(=O)(=O)c1ccc(C(=O)Nc2ncccc2C)cc1 | 25.9 µM [falling, partial curve, poor fit] | –

The list continues.

| Compound | AC50 [1] | AC50 (measured here: IkBa-CBG green luminescence) |
| --- | --- | --- |
| COc1ccc2nc(-c3cccc(N)c3)[nH]c2c1 | 14.6 µM [falling, partial curve] | – |
| Cc1nc(Nc2ccc(Cl)cc2Cl)sc1C(=O)Nc1ccccc1 | 29.1 µM [falling, single point] | – |
| COc1cc2c3c(c1OC)C1(C=CC(=NNC(N)=O)C=C1)CC3N(C(C)=O)CC2 (stereo unspecified) | 18.4 µM [rising, partial curve, poor fit] | – |
| O=C(Nc1cnccn1)Nc1ccccc1F | 8.91 µM [falling, partial curve, poor fit] | – |
| COc1cccc(/C=C/C(=O)OCC(=O)Nc2ccc(Cl)c(S(=O)(=O)N(C)C)c2)c1 | 25.1 µM [rising, single point] | – |
| COc1ccc(CN2CCN(S(=O)(=O)c3ccccc3)CC2)cc1Br | 8.2 µM [falling, single point] | – |
| COC(=O)[C@]1(C)CCC[C@@]2(C)C3CC[C@@]4(C)C[C@]3(CCC21)CC(=O)N4 (stereo partly specified) | 29.1 µM [falling, single point] | – |
| CN1C(=O)C(CC(=O)NCCc2ccccc2)N(NC(=O)c2cccc(F)c2)C1=S (stereo unspecified) | 11.2 µM [falling, partial curve, poor fit] | – |
| CCCc1c(C(=O)Nc2ccc(OC)cc2)cnn1-c1ccccc1 | 7.94 µM [falling, partial curve] | – |
| Clc1cccc(-n2ncc3c(N4CCCCC4)ncnc32)c1 | 0.1 µM [rising, full curve, poor fit] | – |
| Cc1cccc(NC(=O)c2ccccc2OCC(=O)c2ccc(F)cc2)c1 | 32.6 µM [rising, partial curve, poor fit] | – |
| Cc1cc(C(=O)Nc2ccccc2N2CCOCC2)c2ccccc2n1 | 0.13 µM [falling, full curve, poor fit] | – |
| O=C(CNC(=O)c1ccccc1F)NCCN1C(=O)S/C(=C\c2ccccc2Cl)C1=O | 3.55 µM [rising, partial curve, poor fit] | – |
| O=C(Nc1ccc(O)cc1C(=O)O)c1ccc(NC(=O)c2ccco2)cc1 | 25.9 µM [falling, partial curve, poor fit] | – |
| COc1ccc(CNC(=O)C2CC(c3cccc(OC)c3)=NO2)cc1 (stereo unspecified) | 20 µM [rising, partial curve, poor fit] | – |
| C#Cc1ccc([C@@H]2C=C(C(=O)NCc3nc4ccccc4[nH]3)O[C@H](OCC)[C@H]2CCCO)cc1 | 4.47 µM [rising, single point] | – |
| CCOC(=O)c1sc2ccc(S(=O)(=O)N3CCCCC3)cc2c1N | 1.41 µM [falling, partial curve, poor fit] | – |
| COc1ccccc1N1CCN(C(C)C(=O)Nc2ccc(S(=O)(=O)N3CCOCC3)cc2)CC1 (stereo unspecified) | 17.8 µM [rising, single point] | – |
| CC(NC(=O)CN1C(=O)NC(Cc2ccccc2)(Cc2ccccc2)C1=O)C12CC3CC(CC(C3)C1)C2 (stereo unspecified) | 23.1 µM [falling, single point] | – |
| COc1cc(/C=N\NC(=O)c2ccccc2F)ccc1Oc1ccc([N+](=O)[O-])cn1 | 35.5 µM [falling, single point] | – |
